# Test results from PubChem BioAssay (EPA / NIEHS).
# Sequences of proteins named here, by UniProt entry; tags and fusion partners are left off. A change or cut given only in a name is not applied to a line headed by its entry.
# UniProt P21709: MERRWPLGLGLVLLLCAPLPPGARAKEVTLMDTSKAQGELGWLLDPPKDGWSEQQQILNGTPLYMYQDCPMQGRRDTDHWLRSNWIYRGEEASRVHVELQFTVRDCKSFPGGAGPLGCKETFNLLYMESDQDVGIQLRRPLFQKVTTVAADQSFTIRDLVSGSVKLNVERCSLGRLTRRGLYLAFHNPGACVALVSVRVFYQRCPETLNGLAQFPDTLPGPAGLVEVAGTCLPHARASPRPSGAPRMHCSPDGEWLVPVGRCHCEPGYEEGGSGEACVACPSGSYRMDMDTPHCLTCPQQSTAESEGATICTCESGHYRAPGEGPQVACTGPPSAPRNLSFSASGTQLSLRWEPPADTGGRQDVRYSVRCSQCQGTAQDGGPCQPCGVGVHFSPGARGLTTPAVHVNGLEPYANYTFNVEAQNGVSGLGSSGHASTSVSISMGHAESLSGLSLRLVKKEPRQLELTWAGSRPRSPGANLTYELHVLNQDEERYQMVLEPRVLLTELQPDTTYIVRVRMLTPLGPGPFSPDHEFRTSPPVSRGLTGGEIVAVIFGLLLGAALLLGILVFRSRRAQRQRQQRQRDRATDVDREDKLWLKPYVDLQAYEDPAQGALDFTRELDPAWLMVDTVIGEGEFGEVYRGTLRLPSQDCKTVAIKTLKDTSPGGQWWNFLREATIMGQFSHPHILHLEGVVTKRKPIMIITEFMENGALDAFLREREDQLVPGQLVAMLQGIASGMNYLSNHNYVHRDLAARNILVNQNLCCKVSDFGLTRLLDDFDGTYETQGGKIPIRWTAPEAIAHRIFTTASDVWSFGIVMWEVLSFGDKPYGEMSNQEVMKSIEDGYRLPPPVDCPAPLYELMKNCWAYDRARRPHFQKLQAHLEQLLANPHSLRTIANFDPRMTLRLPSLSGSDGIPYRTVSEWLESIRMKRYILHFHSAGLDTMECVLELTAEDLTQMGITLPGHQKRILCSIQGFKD
# UniProt P17948, whole entry, looked up: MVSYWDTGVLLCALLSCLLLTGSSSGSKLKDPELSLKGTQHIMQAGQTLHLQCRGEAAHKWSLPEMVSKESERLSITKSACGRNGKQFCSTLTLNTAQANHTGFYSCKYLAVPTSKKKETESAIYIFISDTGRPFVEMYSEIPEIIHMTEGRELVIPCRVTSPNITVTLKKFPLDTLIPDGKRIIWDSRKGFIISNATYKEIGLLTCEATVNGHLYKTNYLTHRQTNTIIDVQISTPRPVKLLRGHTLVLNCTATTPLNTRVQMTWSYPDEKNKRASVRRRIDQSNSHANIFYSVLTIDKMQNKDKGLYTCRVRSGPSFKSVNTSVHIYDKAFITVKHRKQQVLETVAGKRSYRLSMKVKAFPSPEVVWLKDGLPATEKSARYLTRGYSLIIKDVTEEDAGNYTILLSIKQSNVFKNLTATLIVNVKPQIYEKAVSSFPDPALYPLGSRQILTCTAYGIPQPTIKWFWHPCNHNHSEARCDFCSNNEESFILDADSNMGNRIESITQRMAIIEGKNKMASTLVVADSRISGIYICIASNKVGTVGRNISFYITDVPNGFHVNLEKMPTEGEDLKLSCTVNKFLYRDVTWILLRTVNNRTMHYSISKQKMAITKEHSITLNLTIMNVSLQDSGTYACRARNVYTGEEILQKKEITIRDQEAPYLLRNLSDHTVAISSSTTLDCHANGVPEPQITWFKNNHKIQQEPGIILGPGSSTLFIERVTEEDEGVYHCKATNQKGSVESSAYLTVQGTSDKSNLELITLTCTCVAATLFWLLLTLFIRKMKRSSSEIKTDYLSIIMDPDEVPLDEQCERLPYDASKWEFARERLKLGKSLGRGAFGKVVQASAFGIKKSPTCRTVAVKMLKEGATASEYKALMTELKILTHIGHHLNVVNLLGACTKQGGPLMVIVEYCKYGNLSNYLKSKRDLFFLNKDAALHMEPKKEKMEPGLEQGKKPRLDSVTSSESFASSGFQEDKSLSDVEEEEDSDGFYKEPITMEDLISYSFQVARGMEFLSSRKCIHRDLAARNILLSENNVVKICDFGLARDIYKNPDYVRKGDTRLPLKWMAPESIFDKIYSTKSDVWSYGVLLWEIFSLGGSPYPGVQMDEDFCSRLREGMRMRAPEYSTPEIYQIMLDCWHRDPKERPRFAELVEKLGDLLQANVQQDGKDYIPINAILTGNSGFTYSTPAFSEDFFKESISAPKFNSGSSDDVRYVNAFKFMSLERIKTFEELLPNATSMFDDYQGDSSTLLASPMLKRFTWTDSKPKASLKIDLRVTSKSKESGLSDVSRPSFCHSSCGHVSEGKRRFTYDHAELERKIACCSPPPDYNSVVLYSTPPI
# UniProt P04386, whole entry, looked up: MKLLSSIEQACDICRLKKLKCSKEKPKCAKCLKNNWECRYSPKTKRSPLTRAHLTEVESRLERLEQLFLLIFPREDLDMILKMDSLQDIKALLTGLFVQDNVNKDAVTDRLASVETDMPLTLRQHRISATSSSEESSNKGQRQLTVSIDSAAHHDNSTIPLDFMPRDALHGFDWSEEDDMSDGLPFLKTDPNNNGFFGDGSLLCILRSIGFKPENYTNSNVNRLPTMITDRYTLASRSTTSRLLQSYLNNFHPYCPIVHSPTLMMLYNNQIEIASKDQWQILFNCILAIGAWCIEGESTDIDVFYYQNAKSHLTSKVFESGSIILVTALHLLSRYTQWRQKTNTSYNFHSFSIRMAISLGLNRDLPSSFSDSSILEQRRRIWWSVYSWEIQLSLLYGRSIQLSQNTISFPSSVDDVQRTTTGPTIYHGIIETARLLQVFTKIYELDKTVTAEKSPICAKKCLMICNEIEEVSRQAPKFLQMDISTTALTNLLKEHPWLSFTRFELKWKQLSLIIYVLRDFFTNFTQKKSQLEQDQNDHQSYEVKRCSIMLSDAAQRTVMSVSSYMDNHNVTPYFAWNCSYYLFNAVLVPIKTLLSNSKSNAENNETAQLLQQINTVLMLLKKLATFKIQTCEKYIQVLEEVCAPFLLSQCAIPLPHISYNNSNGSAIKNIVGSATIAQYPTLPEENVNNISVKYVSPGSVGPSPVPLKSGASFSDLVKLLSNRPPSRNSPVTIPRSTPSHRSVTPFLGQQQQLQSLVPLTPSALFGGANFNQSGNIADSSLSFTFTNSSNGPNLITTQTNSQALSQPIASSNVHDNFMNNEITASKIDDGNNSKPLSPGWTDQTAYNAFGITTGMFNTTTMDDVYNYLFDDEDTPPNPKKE
# UniProt Q98867: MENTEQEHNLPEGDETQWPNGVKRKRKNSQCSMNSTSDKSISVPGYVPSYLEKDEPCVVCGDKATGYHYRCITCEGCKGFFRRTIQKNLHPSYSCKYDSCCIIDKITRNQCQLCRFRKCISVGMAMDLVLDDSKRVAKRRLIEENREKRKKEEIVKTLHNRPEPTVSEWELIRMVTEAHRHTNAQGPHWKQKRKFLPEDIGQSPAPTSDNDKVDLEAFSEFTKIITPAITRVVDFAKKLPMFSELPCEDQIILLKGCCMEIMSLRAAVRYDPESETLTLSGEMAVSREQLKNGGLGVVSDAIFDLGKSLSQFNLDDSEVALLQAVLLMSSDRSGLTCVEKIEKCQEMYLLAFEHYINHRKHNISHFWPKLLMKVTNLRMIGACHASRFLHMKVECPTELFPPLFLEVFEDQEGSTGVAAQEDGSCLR
# UniProt P10827: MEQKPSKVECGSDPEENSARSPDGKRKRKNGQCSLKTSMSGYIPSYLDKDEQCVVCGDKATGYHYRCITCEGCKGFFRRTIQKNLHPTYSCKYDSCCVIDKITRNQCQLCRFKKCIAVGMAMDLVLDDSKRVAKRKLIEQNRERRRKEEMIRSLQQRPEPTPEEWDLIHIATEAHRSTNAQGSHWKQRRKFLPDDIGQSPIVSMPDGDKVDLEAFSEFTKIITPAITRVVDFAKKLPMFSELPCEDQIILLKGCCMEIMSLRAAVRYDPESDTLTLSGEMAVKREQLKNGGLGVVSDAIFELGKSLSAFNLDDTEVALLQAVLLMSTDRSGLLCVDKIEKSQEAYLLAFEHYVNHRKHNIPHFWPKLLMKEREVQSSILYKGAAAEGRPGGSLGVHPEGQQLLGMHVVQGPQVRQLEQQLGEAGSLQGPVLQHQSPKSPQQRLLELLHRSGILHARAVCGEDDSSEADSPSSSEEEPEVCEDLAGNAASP
# UniProt P08172, whole entry, looked up: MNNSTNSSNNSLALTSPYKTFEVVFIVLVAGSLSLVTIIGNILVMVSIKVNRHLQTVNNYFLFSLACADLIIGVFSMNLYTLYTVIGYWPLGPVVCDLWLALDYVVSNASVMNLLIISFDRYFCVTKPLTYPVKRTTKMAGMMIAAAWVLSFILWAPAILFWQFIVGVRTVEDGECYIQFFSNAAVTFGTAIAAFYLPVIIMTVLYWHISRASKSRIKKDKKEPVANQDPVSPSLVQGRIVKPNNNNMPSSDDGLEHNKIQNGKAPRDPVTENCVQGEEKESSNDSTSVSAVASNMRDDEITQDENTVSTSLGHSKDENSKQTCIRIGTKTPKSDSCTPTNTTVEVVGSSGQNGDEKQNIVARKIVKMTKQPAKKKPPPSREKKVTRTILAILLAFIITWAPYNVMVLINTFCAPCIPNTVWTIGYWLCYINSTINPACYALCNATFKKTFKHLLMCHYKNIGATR
# UniProt P42336, whole entry, looked up: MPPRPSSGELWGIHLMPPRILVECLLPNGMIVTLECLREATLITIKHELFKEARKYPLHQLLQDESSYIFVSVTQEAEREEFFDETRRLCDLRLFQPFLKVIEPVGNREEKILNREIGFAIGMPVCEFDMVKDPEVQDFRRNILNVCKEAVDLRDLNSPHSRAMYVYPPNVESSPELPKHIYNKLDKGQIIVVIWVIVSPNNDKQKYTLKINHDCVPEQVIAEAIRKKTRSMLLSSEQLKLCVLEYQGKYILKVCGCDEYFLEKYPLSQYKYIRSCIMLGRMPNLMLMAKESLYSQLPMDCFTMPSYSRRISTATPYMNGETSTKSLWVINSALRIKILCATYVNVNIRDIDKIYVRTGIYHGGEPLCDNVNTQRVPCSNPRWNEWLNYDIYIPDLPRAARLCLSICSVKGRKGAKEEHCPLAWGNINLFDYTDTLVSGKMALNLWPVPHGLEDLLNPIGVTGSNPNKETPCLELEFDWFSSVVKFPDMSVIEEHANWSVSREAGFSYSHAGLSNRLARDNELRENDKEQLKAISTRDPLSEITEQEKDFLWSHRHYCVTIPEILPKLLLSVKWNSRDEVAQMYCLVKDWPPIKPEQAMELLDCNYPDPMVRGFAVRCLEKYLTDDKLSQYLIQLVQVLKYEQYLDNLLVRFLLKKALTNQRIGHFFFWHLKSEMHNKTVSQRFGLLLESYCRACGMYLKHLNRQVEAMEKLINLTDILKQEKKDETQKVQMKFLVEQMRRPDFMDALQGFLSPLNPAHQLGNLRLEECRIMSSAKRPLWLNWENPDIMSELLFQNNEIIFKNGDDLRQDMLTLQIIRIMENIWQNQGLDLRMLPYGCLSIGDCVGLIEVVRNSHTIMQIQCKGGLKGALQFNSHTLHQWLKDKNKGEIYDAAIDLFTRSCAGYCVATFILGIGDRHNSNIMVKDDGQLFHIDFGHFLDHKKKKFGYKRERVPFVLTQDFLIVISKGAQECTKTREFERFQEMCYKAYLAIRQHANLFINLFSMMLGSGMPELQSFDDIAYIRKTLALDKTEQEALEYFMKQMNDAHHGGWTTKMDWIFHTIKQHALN
# UniProt Q92731, whole entry, looked up: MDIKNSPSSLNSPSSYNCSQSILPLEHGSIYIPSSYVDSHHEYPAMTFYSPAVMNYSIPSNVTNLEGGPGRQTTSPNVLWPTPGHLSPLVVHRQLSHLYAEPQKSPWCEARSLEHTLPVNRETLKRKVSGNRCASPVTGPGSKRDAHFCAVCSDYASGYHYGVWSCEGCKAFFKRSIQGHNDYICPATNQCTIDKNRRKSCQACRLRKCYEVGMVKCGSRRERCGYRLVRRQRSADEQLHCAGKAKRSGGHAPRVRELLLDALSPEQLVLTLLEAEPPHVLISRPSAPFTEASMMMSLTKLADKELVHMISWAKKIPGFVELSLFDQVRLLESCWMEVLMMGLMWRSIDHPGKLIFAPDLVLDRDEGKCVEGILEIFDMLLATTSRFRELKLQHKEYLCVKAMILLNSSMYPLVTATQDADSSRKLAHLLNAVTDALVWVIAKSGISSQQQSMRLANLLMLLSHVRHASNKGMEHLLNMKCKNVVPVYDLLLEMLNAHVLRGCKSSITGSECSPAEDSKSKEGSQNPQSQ
# Values joined by “and” are separate entries in the source; they are usually repeats but may differ in a detail not shown here. Identical values can stand only once. Inconclusive means that the source gave no clear call. Such entries were picked first, then a sample of the others. For part of these data: Potencies of inconclusive entries are doubtful fits and often do not repeat. Active and inactive are the calls of the source. How the source made its calls: active means hit-call score of the fitted dose curve at least 0.9, where 1 is the maximum; inconclusive means response in the unintended direction; inactive means score below 0.9.
# Assays:
# [1] = target: Voltage-dependent N-type calcium channel subunit alpha-1B (Rattus norvegicus) (UniProt Q02294); assay: NVS_IC_rCaChN: NovaScreen (NVS) Ion Channel Assay for rat Calcium Channel, Type N (CaChN) (AID 2283317)
# [2] = Tanguay_ZF_120hpf_SOMI_legacy: (Legacy) Oregon State University Tanguay Lab 120 Hour Post-fertilization zebrafish Assay for Somite Malformation (AID 2283647)
# Procedure, shortened: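 Binary brightfield scoring of somite defects at 120 hpf in 5D wild-type larvae; one dechorionated embryo per well, static exposure from 6 hpf, 28C, sealed and dark. Final DMSO 0.64%; trimethyltin chloride 5uM positive control.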
# [3] = target: human Ephrin type-A Receptor 1 (EphA1), EPHA1 (gene 2041) (UniProt P21709); assay: NVS_ENZ_hEphA1: NovaScreen (NVS) Enzymatic Assay for human Ephrin type-A Receptor 1 (EphA1) (AID 2283158);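 further: activity is signal loss versus DMSO meaning EphA1 kinase inhibition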
# Procedure, shortened: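 Recombinant kinase, fluorescent substrate, mobility-shift separation, fluorescence read at 1 h. Single-point duplicates at 25 uM; hits (e.g., ≥30% inhibition) run singleton concentration-response, max 50 uM. DMSO = negative control/baseline.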
# [4] = target: human Vascular Endothelial Growth Factor Receptor 1 (VEGFR1), FLT1 (gene 2321) (UniProt P17948); assay: NVS_ENZ_hVEGFR1: NovaScreen (NVS) Enzymatic Assay for human Vascular Endothelial Growth Factor Receptor 1 (VEGFR1) (AID 2283226)
# Procedure, shortened: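 Cell-free assay of recombinant human VEGFR1 kinase with substrate, measured 1 h after dosing; fluorescence with electrophoretic mobility-shift separation of substrate and product, referenced to DMSO; primary screen at 25 uM in duplicate, actives then run in concentration series.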
# [5] = Tanguay_ZF_120hpf_CIRC_legacy: (Legacy) Oregon State University Tanguay Lab 120 Hour Post-fertilization zebrafish Assay for Circulatory Malformation (AID 2283651)
# Procedure, shortened: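 Tropical 5D wild-type embryos, dechorionated with pronase at 4 hpf, were placed singly in wells at 6 hpf and exposed statically at 28C to 120 hpf (0.64% DMSO final). Circulatory malformation was scored present/absent by brightfield microscopy.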
# [6] = target: GAL4 Transcription Factor (Internal Marker), GAL4 (gene 855828) (UniProt P04386); assay: ATG_GAL4_XSP2: Attagene TRANS-FACTORIAL Multi-Species (XSP2) HepG2 Assay for GAL4 Transcription Factor (Internal Marker) (AID 2283814);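 further: GAL4 reporter mRNA background control in MRTU transfected cells not a receptor target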
# Procedure, shortened: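 HepG2 cells transiently transfected with GAL4-UAS reporter units, stimulated with 3 nM 6-alpha-fluorotestosterone plus 1.5 nM norgestrel, dosed 24 h. Reporter mRNA by RT-PCR/capillary electrophoresis; gain-of-signal fit versus DMSO, background control.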
# [7] = tested on: zebrafish Androgen Receptor (AR), gene 100005148; assay: ATG_zfAR_XSP2: Attagene TRANS-FACTORIAL Multi-Species (XSP2) HepG2 Assay for zebrafish Androgen Receptor (AR) (AID 2283825);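 further: hits raise reporter mRNA above DMSO so AC50 reflects agonist-type gain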
# Procedure, shortened: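 Zebrafish AR–GAL4 chimera transiently expressed with GAL4-UAS reporter in HepG2 cells, co-stimulated with 3 nM 6-alpha-fluorotestosterone and 1.5 nM norgestrel; 24 h dosing, reporter mRNA read by RT-PCR/capillary electrophoresis versus DMSO.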
# [8] = target: zebrafish Thyroid Hormone Receptor alpha (TRa), thraa (gene 30670) (UniProt Q98867); assay: ATG_zfTRa_XSP2: Attagene TRANS-FACTORIAL Multi-Species (XSP1) HepG2 Assay for zebrafish Thyroid Hormone Receptor alpha (TRa) (AID 2283832);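 further: actives raise zebrafish TRa-Gal4 reporter transcript above DMSO baseline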
# Procedure, shortened: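 HepG2 cells transiently transfected with multiplexed GAL4-UAS reporter units expressing chimeric NR-Gal4 proteins; 24 h after dosing, reporter mRNA measured by RT-PCR, FAM labelling, HpaI digestion and capillary electrophoresis; gain of signal versus DMSO baseline.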
# [9] = target: human Thyroid hormone Receptor alpha (TRa), THRA (gene 7067) (UniProt P10827); assay: ATG_hTRa_XSP2: Attagene TRANS-FACTORIAL Multi-Species (XSP2) HepG2 Assay for human Thyroid hormone Receptor alpha (TRa) (AID 2283838)
# Procedure, shortened: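 HepG2 cells transiently transfected with multiplexed GAL4-UAS reporter units and exogenous NR-GAL4 chimeras; 24 h chemical exposure with 3 nM 6-alpha-fluorotestosterone and 1.5 nM norgestrel present. Reporter mRNA measured by RT-PCR, FAM labelling, HpaI digestion, capillary electrophoresis; gain-of-signal versus DMSO.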
# [10] = target: Muscarinic acetylcholine receptor M2 (Homo sapiens) (UniProt P08172); assay: NVS_GPCR_hM2: NovaScreen (NVS) G Protein-Coupled Receptor Assay for human Muscarinic, M2 Receptor (AID 2283273)
# Procedure, shortened: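 CHO membrane prep, radioligand + test compound, 1 h; filtration, scintillation count. Screen 25 uM duplicate → conc. series for actives. Readout: decrease in binding vs DMSO control.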
# [11] = target: human Phosphoinositide 3-kinase alpha (PI3Ka), PIK3CA (gene 5290) (UniProt P42336); assay: NVS_ENZ_hPI3Ka: NovaScreen (NVS) Enzymatic Assay for human Phosphoinositide 3-kinase alpha (PI3Ka) (AID 2283196)
# Procedure, shortened: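 Chemicals were first screened at 25 uM in duplicate, then hits were run as concentration series up to 50 uM. Enzyme activity was measured by fluorescence after mobility-shift separation, with loss of signal relative to DMSO taken as activity.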
# [12] = target: Estrogen receptor (Homo sapiens) + Estrogen receptor beta (Homo sapiens) (UniProt P03372+Q92731); assay: OT_ER_ERaERb_0480: Odyssey Thera (OT) 8-hour HEK293T Protein-Complementation Assay for Estrogen Receptor-alpha/-beta Heterodimer (AID 2283352)
# Procedure, shortened: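 Fluorescence intensity readout from a protein-fragment complementation reporter in HEK293T; ER-alpha/ER-beta LBD heterodimer. Dosing 8 h. Gain-of-signal fit relative to DMSO negative control; laser scanning cytometry of whole-well cell population.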
# [13] = target: human Thyroid Receptor Alpha (TRa), THRA (gene 7067) (UniProt P10827); assay: NVS_NR_hTRa_Antagonist: NovaScreen (NVS) Nuclear Receptor Binding Assay for human Thyroid Receptor Alpha Antagonism (TRa) (AID 2283362);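 further: activity is loss of signal relative to DMSO baseline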
# Procedure, shortened: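 AlphaLISA chemiluminescent immunoassay readout, taken 1 h post-dosing in a cell-free system with extracted protein. Activity was scored as signal loss against DMSO negative control, from duplicate single-concentration (25 uM) testing followed by concentration-response follow-up.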
# [14] = CCTE_Deisenroth_AIME_384WELL_CTox_Active: Cytotoxicity Assessment (CTOX) in CCTE's 384-well Estrogen Receptor Transactivation Assay with AIME metabolic competence (metabolism positive), Deisenroth Lab (AID 2284037);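 further: chemicals first conditioned 2 h by alginate-bound induced rat liver S9 before cells; activity means signal loss indicating cell death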
# Procedure, shortened: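 Cytotoxicity in VM7Luc4E2 breast cells, 24 hour, measured as protease-substrate fluorescence loss, after 2-hour metabolic conditioning with induced rat hepatic S9 in alginate microspheres. Concentrations 0.002 - 200 uM, 10 points, bidirectional fitting.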
smiles,measurement,setting,value
CCCCCCCCCCCCCCCO,AC50,[1],inconclusive: 0.591 µM
same,AC50,[2],inconclusive: 36.7 µM
CN(C)C(=S)SC(=S)N(C)C,AC50,[3],inconclusive: 8.18 µM
same,outcome,[4],inactive
NC=O,AC50,[5],inconclusive: 95.5 µM
BrCc1cccc(Oc2ccccc2)c1,AC50,[6],inconclusive: 27.1 µM
same,AC50,[7],inconclusive: 100 µM and inconclusive: 63.5 µM
same,outcome,[8],inactive
same,AC50,[9],inconclusive: 100 µM
same,outcome,[9],inactive
CCc1c(C)cc(N)c(CC)c1N,AC50,[10],inconclusive: 12.2 µM
O=C(NO)C1(NS(=O)(=O)c2ccc(Oc3ccc(F)cc3)cc2)CCOCC1,AC50,[11],inconclusive: 0.0732 µM
same,outcome,[4],inactive
same,AC50,[1],inconclusive: 0.201 µM
same,AC50,[12],inconclusive: 50 µM
Cc1cc(S(=O)(=O)O)ccc1N=Nc1c(O)ccc2ccccc12,AC50,[13],active: 17.6 µM
CC1=CC(=O)CC(C)(C)C1,AC50,[2],inconclusive: 201 µM
Cc1ccc(S(=O)(=O)Oc2ccc(N=Nc3ccc(-c4ccc(N=Nc5c(O)ccc6cc(S(=O)(=O)O)cc(S(=O)(=O)O)c56)c(C)c4)cc3C)cc2)cc1,AC50,[13],active: 3.09 µM
CC(C)CC(=O)CC(C)C,outcome,[14],inactive
C=C(C)C1CC=C(C)C(OC(C)=O)C1 (stereo unspecified),AC50,[3],inconclusive: 25 µM
same,AC50,[11],active: 25 µM
